We go through 38 targets from the supplement of paper PMC11006884.

The list shows a part of the results, in another mix than the full data. Single values of this set are uncertain.

Compound in this assay: COC(=O)/C=C/c1ccccc1 [methyl cinnamate]
Description: log2 ratio of iodoacetamide-alkyne labeling of the cysteine site, DMSO over compound (competition); higher = stronger covalent engagement of the cysteine by the compound, active = 1 or more. Particulars: 500 µM; treatment time 1 h; system: HEK293T cell lysate. The gist of the method:
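After 1 h at ambient temperature with vehicle or electrophile (500 µM), HEK293T lysate (2 mg/mL) was labelled for 1 h with iodoacetamide alkyne and clicked to sCIP-TMT reagents. Pooled samples were trypsin-digested overnight at 37 °C, streptavidin-enriched, acid-eluted and analysed by Orbitrap Eclipse LC-MS/MS with FAIMS, then quantified in FragPipe over three replicates with duplicate channels. A cysteine's log2 competition ratio is its mean control-channel over mean compound-channel reporter intensity. Cysteines quantified in only one replicate were not included.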
Consider CKAP5 C1946 (UniProt Q14008), for which the “log2 ratio of iodoacetamide-alkyne labeling” value (“log2 ratio” below) is inactive: 0.43.

Turning to CKAP5 C441 (UniProt Q14008), the “log2 ratio” value was inactive: 0.203.

Regarding CAMK2G C453 (UniProt Q13555), the “log2 ratio” value is inactive: -0.0374.

Consider FHL1 C36 (UniProt Q13642), for which the “log2 ratio” value was inactive: 0.129.

As to BLMH C73 (UniProt Q13867), the “log2 ratio” value was inactive: 0.184.

Take CKAP5 C592 (UniProt Q14008): the “log2 ratio” value was inactive: 0.173.

Regarding SQSTM1 C290 (UniProt Q13501), the “log2 ratio” value is inactive: 0.524.

For NCAPH C316 (UniProt Q15003), the “log2 ratio” value was inactive: -0.237.

Turning to FHL1 C92 (UniProt Q13642), the “log2 ratio” value is inactive: 0.188.

CBX2 C340 (UniProt Q14781): the “log2 ratio” value is inactive: 0.143.

Regarding KPNB1 C585 (UniProt Q14974), the “log2 ratio” value was inactive: -0.09.

Take FHL1 C65 (UniProt Q13642): the “log2 ratio” value is inactive: -0.142.

As for UBXN2B C41 (UniProt Q14CS0), the “log2 ratio” value was inactive: 0.0924.

EIF3A C58 (UniProt Q14152): the “log2 ratio” value was inactive: 0.207.

For RRP1B C583 (UniProt Q14684), the “log2 ratio” value is inactive: 0.294.

Consider GOLGB1 C1257 (UniProt Q14789), for which the “log2 ratio” value is inactive: 0.147.

As for FHL1 C188 (UniProt Q13642), the “log2 ratio” value was inactive: 0.202.

Turning to DCTN1 C791 (UniProt Q14203), the “log2 ratio” value is inactive: 0.178.

As for GAPVD1 C374 (UniProt Q14C86), the “log2 ratio” value is inactive: -0.157.

On to ESPL1 C294 (UniProt Q14674), for which the “log2 ratio” value was inactive: 0.243.

Take PDCD11 C361 (UniProt Q14690): the “log2 ratio” value is inactive: 0.114.

In the case of CUL3 C187 (UniProt Q13618), the “log2 ratio” value was inactive: -0.0629.

For the target MDC1 C1742 (UniProt Q14676), the “log2 ratio” value was inactive: -0.033.

In the case of UniProt Q13557_C373, the “log2 ratio” value was inactive: 0.412.

On to FHL1 C71 (UniProt Q13642), for which the “log2 ratio” value is inactive: 0.317.

For the target FLNC C1109 (UniProt Q14315), the “log2 ratio” value was inactive: -0.162.

Turning to EIF3A C478 (UniProt Q14152), the “log2 ratio” value was inactive: 0.288.

NPAT C551 (UniProt Q14207): the “log2 ratio” value was inactive: 0.306.

Consider FHL3 C212 (UniProt Q13643), for which the “log2 ratio” value was inactive: -0.102.

As for UniProt Q14444_C226, the “log2 ratio” value was inactive: 0.101.

CAMK2G C7 (UniProt Q13555): the “log2 ratio” value is inactive: 0.306.

On to FHL3 C7 (UniProt Q13643), for which the “log2 ratio” value is inactive: 0.0109.

With UniProt Q14141_C432, the “log2 ratio” value was inactive: 0.256.

In the case of CHD4 C1594 (UniProt Q14839), the “log2 ratio” value was inactive: -0.00684.

As to FHL1 C185 (UniProt Q13642), the “log2 ratio” value is inactive: -0.145.

Consider PUM1 C5 (UniProt Q14671), for which the “log2 ratio” value is inactive: 0.453.

As for DYNC1H1 C2076 (UniProt Q14204), the “log2 ratio” value is inactive: -0.0527.

Consider HLTF C442 (UniProt Q14527), for which the “log2 ratio” value is inactive: 0.0178.
